# Results from the supplement of paper PMC12067093, “Discovery and optimisation of a covalent ligand for TRIM25 and its application to targeted protein ubiquitination” (Chemical Science, 2025).
# Sequences of proteins named here, by UniProt entry; tags and fusion partners are left off. A change or cut given only in a name is not applied to a line headed by its entry.
# UniProt O14841: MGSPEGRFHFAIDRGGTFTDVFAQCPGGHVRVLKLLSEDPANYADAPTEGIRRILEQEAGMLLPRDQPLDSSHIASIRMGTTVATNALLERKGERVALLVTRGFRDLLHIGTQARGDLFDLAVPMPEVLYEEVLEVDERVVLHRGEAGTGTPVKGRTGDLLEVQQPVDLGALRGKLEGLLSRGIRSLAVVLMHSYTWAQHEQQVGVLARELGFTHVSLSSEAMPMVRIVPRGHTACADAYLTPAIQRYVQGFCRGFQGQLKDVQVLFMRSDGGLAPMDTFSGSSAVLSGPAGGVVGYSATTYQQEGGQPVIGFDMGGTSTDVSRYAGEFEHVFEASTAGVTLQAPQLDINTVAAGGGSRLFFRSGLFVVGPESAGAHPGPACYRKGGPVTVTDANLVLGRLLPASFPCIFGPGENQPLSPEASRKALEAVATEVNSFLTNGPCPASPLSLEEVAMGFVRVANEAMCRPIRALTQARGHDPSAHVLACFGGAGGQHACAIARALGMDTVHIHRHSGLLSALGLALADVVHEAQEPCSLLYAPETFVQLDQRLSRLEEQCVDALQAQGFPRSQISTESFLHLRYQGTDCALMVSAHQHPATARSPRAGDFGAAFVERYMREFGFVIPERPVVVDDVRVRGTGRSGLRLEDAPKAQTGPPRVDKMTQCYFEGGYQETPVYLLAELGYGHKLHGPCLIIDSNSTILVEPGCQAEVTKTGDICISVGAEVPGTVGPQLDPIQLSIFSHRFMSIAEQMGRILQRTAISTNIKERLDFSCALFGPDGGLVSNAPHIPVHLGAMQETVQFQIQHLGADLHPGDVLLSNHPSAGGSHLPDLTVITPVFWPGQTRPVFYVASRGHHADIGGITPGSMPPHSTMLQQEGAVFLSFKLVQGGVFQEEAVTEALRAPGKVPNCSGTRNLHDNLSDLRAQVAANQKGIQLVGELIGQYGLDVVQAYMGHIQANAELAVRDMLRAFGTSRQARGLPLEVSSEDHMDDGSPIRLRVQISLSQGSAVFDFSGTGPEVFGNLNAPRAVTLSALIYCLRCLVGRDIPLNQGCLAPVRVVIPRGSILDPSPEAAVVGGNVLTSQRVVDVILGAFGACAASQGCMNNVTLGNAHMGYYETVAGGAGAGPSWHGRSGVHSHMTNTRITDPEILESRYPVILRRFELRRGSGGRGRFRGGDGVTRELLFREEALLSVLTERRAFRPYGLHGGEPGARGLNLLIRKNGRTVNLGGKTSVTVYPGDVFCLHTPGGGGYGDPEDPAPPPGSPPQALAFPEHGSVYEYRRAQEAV
# UniProt P07237: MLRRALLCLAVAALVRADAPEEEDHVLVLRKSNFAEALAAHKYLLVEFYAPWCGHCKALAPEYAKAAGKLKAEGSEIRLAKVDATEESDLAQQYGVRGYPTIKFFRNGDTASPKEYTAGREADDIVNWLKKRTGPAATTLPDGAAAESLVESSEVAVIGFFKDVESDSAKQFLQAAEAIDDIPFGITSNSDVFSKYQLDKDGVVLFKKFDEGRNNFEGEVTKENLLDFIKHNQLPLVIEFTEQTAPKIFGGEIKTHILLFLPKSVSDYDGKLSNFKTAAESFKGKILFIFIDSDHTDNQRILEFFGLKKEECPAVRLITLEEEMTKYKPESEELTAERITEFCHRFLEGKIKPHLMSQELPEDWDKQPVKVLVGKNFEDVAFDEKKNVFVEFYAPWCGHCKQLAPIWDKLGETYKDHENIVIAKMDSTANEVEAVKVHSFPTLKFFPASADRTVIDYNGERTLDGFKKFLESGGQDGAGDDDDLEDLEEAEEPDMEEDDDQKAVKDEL
# UniProt O60313: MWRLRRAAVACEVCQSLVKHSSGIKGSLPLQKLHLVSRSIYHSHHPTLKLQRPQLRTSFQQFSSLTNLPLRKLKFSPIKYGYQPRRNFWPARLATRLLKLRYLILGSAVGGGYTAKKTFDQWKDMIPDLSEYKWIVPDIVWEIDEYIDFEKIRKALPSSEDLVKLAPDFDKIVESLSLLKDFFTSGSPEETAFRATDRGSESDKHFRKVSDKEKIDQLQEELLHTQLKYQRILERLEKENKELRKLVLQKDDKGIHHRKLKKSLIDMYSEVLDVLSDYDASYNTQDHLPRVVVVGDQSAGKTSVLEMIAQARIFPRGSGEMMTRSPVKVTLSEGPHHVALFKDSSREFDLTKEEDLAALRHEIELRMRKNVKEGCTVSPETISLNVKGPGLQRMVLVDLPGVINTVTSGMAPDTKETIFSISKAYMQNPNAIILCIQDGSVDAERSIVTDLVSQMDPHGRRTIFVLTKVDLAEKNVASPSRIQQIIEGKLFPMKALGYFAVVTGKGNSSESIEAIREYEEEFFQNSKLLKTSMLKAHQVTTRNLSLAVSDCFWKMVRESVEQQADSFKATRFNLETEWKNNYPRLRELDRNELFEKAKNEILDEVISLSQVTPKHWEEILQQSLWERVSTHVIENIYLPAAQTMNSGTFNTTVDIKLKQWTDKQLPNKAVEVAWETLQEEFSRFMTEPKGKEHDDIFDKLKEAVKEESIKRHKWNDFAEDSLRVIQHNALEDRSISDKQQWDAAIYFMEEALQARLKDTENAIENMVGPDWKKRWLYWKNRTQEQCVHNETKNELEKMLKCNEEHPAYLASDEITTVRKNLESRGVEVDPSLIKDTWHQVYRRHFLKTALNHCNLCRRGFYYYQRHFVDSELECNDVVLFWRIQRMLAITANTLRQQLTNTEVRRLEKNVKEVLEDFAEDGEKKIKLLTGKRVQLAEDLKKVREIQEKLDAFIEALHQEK
# UniProt Q9UQ80: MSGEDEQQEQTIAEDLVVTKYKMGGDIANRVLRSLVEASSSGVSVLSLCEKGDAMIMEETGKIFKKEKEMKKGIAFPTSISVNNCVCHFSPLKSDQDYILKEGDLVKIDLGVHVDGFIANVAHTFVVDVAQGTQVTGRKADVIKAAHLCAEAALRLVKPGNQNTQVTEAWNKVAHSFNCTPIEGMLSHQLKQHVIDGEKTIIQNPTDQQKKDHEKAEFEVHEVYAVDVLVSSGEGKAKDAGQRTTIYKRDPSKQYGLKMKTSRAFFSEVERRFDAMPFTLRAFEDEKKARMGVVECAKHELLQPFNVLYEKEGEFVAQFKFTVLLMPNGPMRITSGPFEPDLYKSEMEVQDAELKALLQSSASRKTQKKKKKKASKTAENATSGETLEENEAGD
# UniProt Q96FW1, whole entry, looked up: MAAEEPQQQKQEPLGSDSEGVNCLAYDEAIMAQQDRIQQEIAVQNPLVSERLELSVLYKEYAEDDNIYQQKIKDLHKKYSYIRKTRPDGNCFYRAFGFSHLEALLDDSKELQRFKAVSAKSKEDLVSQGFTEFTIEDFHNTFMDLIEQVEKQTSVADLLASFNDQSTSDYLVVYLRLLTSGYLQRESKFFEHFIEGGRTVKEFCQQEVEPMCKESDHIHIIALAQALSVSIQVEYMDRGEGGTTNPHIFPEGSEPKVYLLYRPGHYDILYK
# UniProt P51003: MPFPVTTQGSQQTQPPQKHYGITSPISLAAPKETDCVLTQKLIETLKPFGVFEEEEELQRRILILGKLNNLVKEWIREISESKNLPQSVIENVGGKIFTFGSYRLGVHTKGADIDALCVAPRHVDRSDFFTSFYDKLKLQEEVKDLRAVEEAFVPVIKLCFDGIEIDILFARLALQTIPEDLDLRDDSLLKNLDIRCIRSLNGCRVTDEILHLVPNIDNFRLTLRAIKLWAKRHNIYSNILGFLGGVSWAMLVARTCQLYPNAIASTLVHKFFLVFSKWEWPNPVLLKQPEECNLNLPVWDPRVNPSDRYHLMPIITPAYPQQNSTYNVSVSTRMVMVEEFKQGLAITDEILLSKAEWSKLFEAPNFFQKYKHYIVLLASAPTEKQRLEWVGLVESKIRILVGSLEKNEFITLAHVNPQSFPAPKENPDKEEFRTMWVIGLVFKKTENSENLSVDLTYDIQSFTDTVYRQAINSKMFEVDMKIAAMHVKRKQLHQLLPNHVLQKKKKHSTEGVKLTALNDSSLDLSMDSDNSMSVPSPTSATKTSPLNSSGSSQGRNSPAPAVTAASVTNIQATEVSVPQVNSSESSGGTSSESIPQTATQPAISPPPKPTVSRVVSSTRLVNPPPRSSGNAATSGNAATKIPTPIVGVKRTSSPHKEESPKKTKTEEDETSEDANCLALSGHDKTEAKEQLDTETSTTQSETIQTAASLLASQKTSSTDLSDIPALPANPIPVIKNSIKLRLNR
# UniProt O43913: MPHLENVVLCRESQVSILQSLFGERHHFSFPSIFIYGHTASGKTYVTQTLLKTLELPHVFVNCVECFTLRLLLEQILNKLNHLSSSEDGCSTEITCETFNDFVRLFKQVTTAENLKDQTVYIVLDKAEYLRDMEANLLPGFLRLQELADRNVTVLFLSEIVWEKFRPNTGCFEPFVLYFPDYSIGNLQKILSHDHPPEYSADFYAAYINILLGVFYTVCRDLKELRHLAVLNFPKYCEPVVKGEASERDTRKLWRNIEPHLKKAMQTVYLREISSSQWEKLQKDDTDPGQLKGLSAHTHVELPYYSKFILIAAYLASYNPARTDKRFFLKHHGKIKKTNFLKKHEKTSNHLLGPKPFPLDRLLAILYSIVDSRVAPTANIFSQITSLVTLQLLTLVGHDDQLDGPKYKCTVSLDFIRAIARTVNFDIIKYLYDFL
# UniProt Q01804: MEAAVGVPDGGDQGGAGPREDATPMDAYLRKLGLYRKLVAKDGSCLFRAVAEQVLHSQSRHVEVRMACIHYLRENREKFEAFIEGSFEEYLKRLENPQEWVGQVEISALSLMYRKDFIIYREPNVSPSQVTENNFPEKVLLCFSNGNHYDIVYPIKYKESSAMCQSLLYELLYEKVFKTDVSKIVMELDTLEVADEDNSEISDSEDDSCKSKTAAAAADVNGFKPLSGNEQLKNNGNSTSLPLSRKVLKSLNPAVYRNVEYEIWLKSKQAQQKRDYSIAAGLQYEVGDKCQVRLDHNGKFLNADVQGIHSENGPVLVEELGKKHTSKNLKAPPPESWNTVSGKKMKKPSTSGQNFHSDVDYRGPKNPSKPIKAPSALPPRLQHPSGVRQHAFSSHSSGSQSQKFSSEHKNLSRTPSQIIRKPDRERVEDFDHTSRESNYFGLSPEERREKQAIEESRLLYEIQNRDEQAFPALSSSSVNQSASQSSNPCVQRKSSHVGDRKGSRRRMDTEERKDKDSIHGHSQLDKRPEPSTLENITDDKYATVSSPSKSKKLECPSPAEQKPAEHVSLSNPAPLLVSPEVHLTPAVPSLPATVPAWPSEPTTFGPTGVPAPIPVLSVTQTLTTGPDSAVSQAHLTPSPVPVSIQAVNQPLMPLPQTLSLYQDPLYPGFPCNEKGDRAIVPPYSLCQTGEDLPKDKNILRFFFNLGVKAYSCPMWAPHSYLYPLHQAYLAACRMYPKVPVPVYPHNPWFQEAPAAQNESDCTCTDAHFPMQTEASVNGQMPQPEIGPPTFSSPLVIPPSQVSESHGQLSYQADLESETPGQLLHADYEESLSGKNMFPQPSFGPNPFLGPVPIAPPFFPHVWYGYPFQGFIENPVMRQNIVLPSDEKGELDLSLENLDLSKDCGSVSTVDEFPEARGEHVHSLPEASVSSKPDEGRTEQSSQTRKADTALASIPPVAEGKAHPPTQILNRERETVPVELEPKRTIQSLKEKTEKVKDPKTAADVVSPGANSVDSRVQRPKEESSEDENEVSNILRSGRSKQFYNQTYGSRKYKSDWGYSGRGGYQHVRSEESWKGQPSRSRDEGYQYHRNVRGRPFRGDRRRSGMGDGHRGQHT
# UniProt Q13415: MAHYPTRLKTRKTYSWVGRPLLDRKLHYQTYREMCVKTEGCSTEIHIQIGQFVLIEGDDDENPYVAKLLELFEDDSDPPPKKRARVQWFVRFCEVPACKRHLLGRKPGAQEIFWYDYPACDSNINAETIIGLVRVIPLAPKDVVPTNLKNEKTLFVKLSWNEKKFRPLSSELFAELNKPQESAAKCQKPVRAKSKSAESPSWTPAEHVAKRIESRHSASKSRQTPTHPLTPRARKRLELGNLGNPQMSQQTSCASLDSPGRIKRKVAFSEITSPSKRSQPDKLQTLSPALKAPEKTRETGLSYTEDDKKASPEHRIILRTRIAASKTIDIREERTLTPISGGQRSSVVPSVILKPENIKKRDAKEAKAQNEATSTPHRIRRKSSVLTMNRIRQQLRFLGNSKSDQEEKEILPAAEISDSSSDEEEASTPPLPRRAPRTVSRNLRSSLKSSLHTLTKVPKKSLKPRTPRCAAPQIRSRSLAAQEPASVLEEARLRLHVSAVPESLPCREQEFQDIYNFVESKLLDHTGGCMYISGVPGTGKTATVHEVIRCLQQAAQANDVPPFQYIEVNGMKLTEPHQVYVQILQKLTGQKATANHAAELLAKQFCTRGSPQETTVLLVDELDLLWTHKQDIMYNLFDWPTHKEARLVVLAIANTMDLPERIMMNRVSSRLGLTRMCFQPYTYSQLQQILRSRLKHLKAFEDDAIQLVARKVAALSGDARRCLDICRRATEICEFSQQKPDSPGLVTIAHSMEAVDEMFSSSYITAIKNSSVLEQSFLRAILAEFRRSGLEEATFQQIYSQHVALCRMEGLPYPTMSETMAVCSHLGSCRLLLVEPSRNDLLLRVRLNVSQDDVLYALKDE
# This is one part of the list.
# Compound: CC1Cc2ccccc2N1C(=O)C1CCCN(C1)C(=O)CCl (mixture of isomers) [TRIM25 ligand 11 (diastereomer mixture)]
# Experiment: probe-labelled cysteine peptide fold change vs DMSO (competition) (log2 fold change); higher = less target engagement (more negative = stronger competition)
# Conditions: THP-1, incubation time: 4 h
# 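Further: competitive chemoproteomic profiling in live THP-1 cells with an iodoacetamide desthiobiotin (IA-DTB) probe, comparing probe-labelled peptide intensities in compound-treated cells against DMSO-treated controls.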
Target,probe-labelled cysteine peptide fold change (10 µM),probe-labelled cysteine peptide fold change (50 µM)
PAPSS1_O43252_127_LFADAGLVCITSFISPYTQDR (UniProt O43252),0.147,0.0753
PAK2_Q13177_352_ECLQALEFLHANQVIHR (UniProt Q13177),0.0134,0.223
OGT_O15294_417_EMQDVQGALQCYTR (UniProt O15294),-0.0702,0.0109
PAPOLG_Q9BWT3_604_TVSPPTVCTIPTVVGR (UniProt Q9BWT3),-0.216,-0.238
OPLAH_O14841_1053_DIPLNQGCLAPVR (UniProt O14841),-0.146,0.136
PAPSS1_O43252_165_QIHEGASLPFFEVFVDAPLHVCEQR (UniProt O43252),0.197,0.0965
P4HB_P07237_312_ILEFFGLKKEECPAVR (UniProt P07237),-0.567,-0.501
PARP10_Q53GL7_1004_YDSAVDCICQPSIFVIFHDTQALPTHLITCEHVPR (UniProt Q53GL7),0.108,-0.334
OGT_O15294_472_LKPDFPDAYCNLAHCLQIVCDWTDYDER (UniProt O15294),-0.029,0.0646
OPA1_O60313_874_HFVDSELECNDVVLFWR (UniProt O60313),0.156,-0.0304
OPA1_O60313_551_NLSLAVSDCFWK (UniProt O60313),-0.0381,-0.00771
OSBPL1A_Q9BXW6_412_ETCVALTDCLNLFTK (UniProt Q9BXW6),-0.00619,0.161
PARP10_Q53GL7_983_YDSAVDCICQPSIFVIFHDTQALPTHLITCEHVPR (UniProt Q53GL7),-0.165,-0.502
OSBPL11_Q9BXB4_34_NSSCGGGISSSSSSR (UniProt Q9BXB4),-0.0951,-0.19
P3H1_Q32P28_123_CLGPPAAHSLSEEMELEFR (UniProt Q32P28),0.411,0.646
PAFAH1B1_P43034_226_MWEVQTGYCVK (UniProt P43034),0.223,0.287
OSGEP_Q9NPF4_110_PLVGVNHCIGHIEMGR (UniProt Q9NPF4),0.103,0.0404
PA2G4_Q9UQ80_87_GIAFPTSISVNNCVCHFSPLK (UniProt Q9UQ80),0.21,-0.184
ORC3_Q9UBD5_10_GCFVFKPNSK (UniProt Q9UBD5),-0.0669,-0.197
PARP16_Q8N5Y8_169_LENFHSIIHNGLHCHLNK (UniProt Q8N5Y8),-0.0777,-0.146
P3H1_Q32P28_282_QNCVTELASHPSR (UniProt Q32P28),0.18,0.126

Target,probe-labelled cysteine peptide fold change (10 µM),probe-labelled cysteine peptide fold change (50 µM)
OSBPL8_Q9BZF1_255_CWMDALELALK (UniProt Q9BZF1),0.0868,0.204
PAFAH1B1_P43034_330_MWDVSTGMCLMTLVGHDNWVR (UniProt P43034),0.174,0.159
OTUB1_Q96FW1_212_EFCQQEVEPMCK (UniProt Q96FW1),0.0465,-0.11
OXCT1_P55809_235_NFNLPMCK (UniProt P55809),-0.0373,-0.144
P3H1_Q32P28_591+600_KDDSHPVHVDNCILNAETLVCVK (UniProt Q32P28),0.0651,-0.167
PARP14_Q460N5_1265_AILECAGQNVER (UniProt Q460N5),-0.12,-0.23
PAPOLA_P51003_677_TKTEEDETSEDANCLALSGHDK (UniProt P51003),-0.114,-0.269
ORC5_O43913_10_PHLENVVLCR (UniProt O43913),-0.0683,-0.0422
OTUD4_Q01804_903_DCGSVSTVDEFPEAR (UniProt Q01804),0.089,-0.0854
PABPN1_Q86U42_195_SIYVGNVDYGATAEELEAHFHGCGSVNR (UniProt Q86U42),-0.00532,0.104
OVCA2_Q8WZ82_64_SDFGSCPPEEQPR (UniProt Q8WZ82),-0.166,-0.219
PAOX_Q6QHF9_33_LCGHSAFPHLR (UniProt Q6QHF9),-0.0546,0.0391
P2RX4_Q99571_132_SDASCTAGSAGTHSNGVSTGR (UniProt Q99571),0.113,-0.224
OTULIN_Q96BN8_47_AAASGQPRPEMQCPAEHEEDMYR (UniProt Q96BN8),-0.0284,-0.303
PAN2_Q504Q3_745_HLPDILVINCEVNSSK (UniProt Q504Q3),-0.127,-0.02
ORC1_Q13415_253_RLELGNLGNPQMSQQTSCASLDSPGR (UniProt Q13415),-0.369,-0.256
OSBPL1A_Q9BXW6_303_CFDDTIHGFRVPK (UniProt Q9BXW6),-0.201,-0.0857
OSBPL9_Q96SU4_577_SILTVPWVELGGECNINCSK (UniProt Q96SU4),0.311,0.198
OPLAH_O14841_408_LLPASFPCIFGPGENQPLSPEASRK (UniProt O14841),-0.0608,-0.0504
PA2G4_Q9UQ80_149_AAHLCAEAALR (UniProt Q9UQ80),0.0157,0.115
PARP10_Q53GL7_898_RPVEQVLYHGTTAPAVPDICAHGFNR (UniProt Q53GL7),0.00207,-0.0554

# Six entries from above, tab-delimited:
Target	probe-labelled cysteine peptide fold change (10 µM)	probe-labelled cysteine peptide fold change (50 µM)
OXCT1_P55809_235_NFNLPMCK (UniProt P55809)	-0.0373	-0.144
ORC5_O43913_10_PHLENVVLCR (UniProt O43913)	-0.0683	-0.0422
OTUD4_Q01804_903_DCGSVSTVDEFPEAR (UniProt Q01804)	0.089	-0.0854
P2RX4_Q99571_132_SDASCTAGSAGTHSNGVSTGR (UniProt Q99571)	0.113	-0.224
OTULIN_Q96BN8_47_AAASGQPRPEMQCPAEHEEDMYR (UniProt Q96BN8)	-0.0284	-0.303
PARP10_Q53GL7_898_RPVEQVLYHGTTAPAVPDICAHGFNR (UniProt Q53GL7)	0.00207	-0.0554

# Additional records

Target,probe-labelled cysteine peptide fold change (10 µM),probe-labelled cysteine peptide fold change (50 µM)
PABPC1_P11940_132_VVCDENGSK (UniProt P11940),0.0624,0.0803
OTULINL_Q9NUU6_177_LLFSQGCNWIQQYSFGPEK (UniProt Q9NUU6),0.0119,-0.0217
PAFAH1B2_P68402_188_LANVQLLDTDGGFVHSDGAISCHDMFDFLHLTGGGYAK (UniProt P68402),0.213,-0.342
OGT_O15294_323_LCPTHADSLNNLANIK (UniProt O15294),0.0479,0.0711
PAFAH1B1_P43034_281_EHEHVVECISWAPESSYSSISEATGSETKK (UniProt P43034),0.0377,0.0146
PAICS_P22234_100_KCGETAFIAPQCEMIPIEWVCR (UniProt P22234),-0.254,-0.0229
OSBPL1A_Q9BXW6_289_HLTQAVCTVK (UniProt Q9BXW6),0.0658,-0.122
OGT_O15294_323_LCPTHADSLNNLANIKR (UniProt O15294),0.00173,-0.00169
PARG_Q86W56_397_LPGNISSLNVECR (UniProt Q86W56),0.0868,-0.0236
PARP14_Q460N5_849_AAGPELQADCDQIVKR (UniProt Q460N5),-0.204,-0.166
ORC5_O43913_63_TLELPHVFVNCVECFTLR (UniProt O43913),0.267,0.215
ORC4_O43929_421_YPNCPTDVR (UniProt O43929),-0.0685,-0.149
P4HB_P07237_312_EECPAVR (UniProt P07237),-0.0591,0.0132
ORC1_Q13415_806_SGLEEATFQQIYSQHVALCR (UniProt Q13415),0.0742,0.0533
OPLAH_O14841_382_SGLFVVGPESAGAHPGPACYR (UniProt O14841),0.0731,0.0631
PARP14_Q460N5_42_RSGGGECEVR (UniProt Q460N5),-0.0352,-0.108
PALD1_Q9ULE6_631_IPMPDFCAPREEDFDQLLEALR (UniProt Q9ULE6),0.052,0.057
PAICS_P22234_266_SESQCR (UniProt P22234),1.85,1.12
P4HB_P07237_397_NVFVEFYAPWCGHCK (UniProt P07237),-0.0102,-0.376
PAFAH2_Q99487_147_SAATTYFCK (UniProt Q99487),-0.0137,-0.0335
PACSIN2_Q9UNF0_38_LCSDLMNCLHER (UniProt Q9UNF0),0.115,0.0274

Target,probe-labelled cysteine peptide fold change (10 µM),probe-labelled cysteine peptide fold change (50 µM)
PALD1_Q9ULE6_617_ACPGLTYHR (UniProt Q9ULE6),0.124,0.0845
OSBPL8_Q9BZF1_617_LKPFLGSSDCVNQISGK (UniProt Q9BZF1),0.163,-0.0286
P4HB_P07237_53_YLLVEFYAPWCGHCK (UniProt P07237),-0.313,-0.54
OPA1_O60313_801_CNEEHPAYLASDEITTVRK (UniProt O60313),0.00749,-0.0711
PARK7_Q99497_53_DVVICPDASLEDAKK (UniProt Q99497),0.00417,-0.162
OSBPL1A_Q9BXW6_340_EDWLEAIEEHSAYSTHYCSQDQLTDEEEEDTVSAADLKK (UniProt Q9BXW6),0.199,-0.153
OTUD6B_Q8N6M0_172_DCALTVVALR (UniProt Q8N6M0),0.0318,0.00252
P4HA2_O15460_504_HAACPVLVGCK (UniProt O15460),-0.0239,-0.0166
PARD3_Q8TEW0_66_LEHGDGGILDLDDILCDVADDKDR (UniProt Q8TEW0),-0.0709,-0.256
OSBPL8_Q9BZF1_729_NEEWSCK (UniProt Q9BZF1),0.0927,0.108
OTUB1_Q96FW1_91_KTRPDGNCFYR (UniProt Q96FW1),-0.383,-0.417
ORC1_Q13415_529_LLDHTGGCMYISGVPGTGK (UniProt Q13415),0.0299,0.0345
P4HTM_Q9NXG6_156_TLSLKPLLFEIPGFLTDEECR (UniProt Q9NXG6),-0.153,0.0582
PARN_O95453_169_CPVTIPEDQK (UniProt O95453),0.0951,-0.119
PANK4_Q9NVE7_651_GTEVILACNSGPALNDVTHSESLIVAER (UniProt Q9NVE7),-0.192,-0.17
OS9_Q13438_73_QRYECR (UniProt Q13438),0.00781,0.194
PAPOLA_P51003_677_TEEDETSEDANCLALSGHDK (UniProt P51003),0.115,-0.0683
P3H1_Q32P28_600_DDSHPVHVDNCILNAETLVCVK (UniProt Q32P28),0.176,0.308
PAICS_P22234_81_CGETAFIAPQCEMIPIEWVCR (UniProt P22234),-0.127,-0.13
